Experimental data published in PMC10865846.
These are yes or no findings as the source states them, for the method shown. Binding seen in cells or lysates may run through a third protein. Some results given as binding are weak or reduced against the parent protein; the word gives no strength.

The chains behind the UniProt entries cited, without tags or fusion partners.
UniProt Q9ULT8: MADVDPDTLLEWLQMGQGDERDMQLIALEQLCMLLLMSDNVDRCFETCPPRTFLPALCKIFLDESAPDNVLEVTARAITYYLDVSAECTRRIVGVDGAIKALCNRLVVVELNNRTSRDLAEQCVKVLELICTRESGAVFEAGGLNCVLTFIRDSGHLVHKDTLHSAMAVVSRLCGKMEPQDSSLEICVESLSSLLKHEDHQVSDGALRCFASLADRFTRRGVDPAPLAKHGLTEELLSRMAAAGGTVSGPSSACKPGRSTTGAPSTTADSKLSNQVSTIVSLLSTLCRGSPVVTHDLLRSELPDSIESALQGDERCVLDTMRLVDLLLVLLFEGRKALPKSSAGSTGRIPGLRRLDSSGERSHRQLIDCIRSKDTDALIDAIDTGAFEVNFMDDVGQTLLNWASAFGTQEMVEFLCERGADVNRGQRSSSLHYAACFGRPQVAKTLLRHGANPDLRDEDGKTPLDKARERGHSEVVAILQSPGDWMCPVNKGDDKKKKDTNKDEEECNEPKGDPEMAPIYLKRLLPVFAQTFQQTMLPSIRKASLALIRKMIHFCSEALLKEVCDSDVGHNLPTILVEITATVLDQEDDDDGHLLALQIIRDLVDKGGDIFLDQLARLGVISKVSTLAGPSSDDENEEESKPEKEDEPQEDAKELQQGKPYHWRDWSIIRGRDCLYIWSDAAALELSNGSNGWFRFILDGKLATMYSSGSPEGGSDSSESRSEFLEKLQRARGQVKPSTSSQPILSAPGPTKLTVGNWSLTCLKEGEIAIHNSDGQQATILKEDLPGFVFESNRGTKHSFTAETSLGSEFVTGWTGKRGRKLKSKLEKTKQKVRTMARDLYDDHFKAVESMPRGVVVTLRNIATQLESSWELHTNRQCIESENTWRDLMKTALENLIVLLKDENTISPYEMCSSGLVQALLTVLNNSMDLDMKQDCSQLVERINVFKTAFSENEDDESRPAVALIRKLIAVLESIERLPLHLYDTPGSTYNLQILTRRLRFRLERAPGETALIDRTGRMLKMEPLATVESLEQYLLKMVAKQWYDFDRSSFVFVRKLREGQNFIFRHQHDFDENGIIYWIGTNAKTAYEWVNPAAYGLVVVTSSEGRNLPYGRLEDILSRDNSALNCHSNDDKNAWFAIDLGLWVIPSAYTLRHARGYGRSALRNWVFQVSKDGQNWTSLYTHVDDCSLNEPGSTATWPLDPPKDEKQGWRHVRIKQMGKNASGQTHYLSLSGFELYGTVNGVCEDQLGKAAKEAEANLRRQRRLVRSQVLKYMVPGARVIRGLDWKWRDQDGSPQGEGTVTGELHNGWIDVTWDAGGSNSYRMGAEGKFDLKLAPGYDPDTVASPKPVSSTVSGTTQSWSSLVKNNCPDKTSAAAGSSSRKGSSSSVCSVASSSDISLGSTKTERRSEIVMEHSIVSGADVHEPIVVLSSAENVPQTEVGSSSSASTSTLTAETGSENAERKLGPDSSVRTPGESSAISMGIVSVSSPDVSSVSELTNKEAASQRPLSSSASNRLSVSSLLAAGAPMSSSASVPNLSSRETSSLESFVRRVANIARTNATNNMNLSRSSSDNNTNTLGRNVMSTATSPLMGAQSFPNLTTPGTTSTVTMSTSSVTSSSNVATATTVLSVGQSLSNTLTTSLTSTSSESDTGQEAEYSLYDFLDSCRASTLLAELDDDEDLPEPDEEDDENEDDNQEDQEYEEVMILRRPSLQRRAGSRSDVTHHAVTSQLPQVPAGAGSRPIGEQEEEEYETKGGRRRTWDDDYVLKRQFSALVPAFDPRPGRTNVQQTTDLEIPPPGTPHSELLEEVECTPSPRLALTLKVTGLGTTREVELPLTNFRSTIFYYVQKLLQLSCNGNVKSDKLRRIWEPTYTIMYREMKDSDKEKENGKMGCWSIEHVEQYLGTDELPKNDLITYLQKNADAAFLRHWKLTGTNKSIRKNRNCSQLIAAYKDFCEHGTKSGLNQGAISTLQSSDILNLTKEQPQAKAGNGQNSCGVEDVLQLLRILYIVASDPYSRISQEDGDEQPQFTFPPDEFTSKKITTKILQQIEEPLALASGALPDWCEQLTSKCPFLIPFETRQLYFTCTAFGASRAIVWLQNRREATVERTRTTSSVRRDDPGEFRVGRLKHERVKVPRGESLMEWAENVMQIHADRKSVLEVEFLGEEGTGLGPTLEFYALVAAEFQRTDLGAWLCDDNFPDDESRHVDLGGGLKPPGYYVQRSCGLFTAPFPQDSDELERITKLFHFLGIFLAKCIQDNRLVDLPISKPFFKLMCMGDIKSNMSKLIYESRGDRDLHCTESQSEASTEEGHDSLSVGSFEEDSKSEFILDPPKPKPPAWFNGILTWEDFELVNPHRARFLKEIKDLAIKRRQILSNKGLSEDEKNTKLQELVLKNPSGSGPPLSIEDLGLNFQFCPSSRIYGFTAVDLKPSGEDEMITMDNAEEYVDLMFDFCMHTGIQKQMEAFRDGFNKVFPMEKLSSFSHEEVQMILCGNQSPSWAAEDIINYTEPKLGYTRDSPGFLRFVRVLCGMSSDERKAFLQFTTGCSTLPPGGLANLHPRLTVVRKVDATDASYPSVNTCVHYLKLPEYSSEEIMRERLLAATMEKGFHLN
UniProt Q8IYM9: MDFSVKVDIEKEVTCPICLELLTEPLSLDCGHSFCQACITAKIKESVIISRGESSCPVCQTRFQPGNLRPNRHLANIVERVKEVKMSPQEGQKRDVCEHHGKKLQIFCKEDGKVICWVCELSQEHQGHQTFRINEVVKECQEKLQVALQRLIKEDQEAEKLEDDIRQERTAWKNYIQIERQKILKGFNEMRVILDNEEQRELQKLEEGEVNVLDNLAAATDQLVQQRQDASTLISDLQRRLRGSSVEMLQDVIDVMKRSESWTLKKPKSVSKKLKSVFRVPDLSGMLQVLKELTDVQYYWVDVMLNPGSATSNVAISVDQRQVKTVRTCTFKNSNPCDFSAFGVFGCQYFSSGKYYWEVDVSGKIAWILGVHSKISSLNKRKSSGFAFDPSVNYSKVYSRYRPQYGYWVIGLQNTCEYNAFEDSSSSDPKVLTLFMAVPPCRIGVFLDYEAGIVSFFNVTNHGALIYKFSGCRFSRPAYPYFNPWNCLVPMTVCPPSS

Columns and labels:
[1] = target: Strep-NSP8 (SARS-CoV-2 non-structural protein 8) (SARS-CoV-2) (UniProt P0DTD1); assay: co-IP
[2] = target: NSP8 from SARS-CoV (SARS-CoV) (UniProt P0C6X7); assay: co-IP

For “HECT domain E3 ubiquitin protein ligase 1 (HECTD1), endogenous (from UniProt Q9ULT8 1-2610)”, the binding [1] was “binds”.
“TRIM22 in HEK-293T lysate (transfected or endogenous not told) (from UniProt Q8IYM9 1-498)” was tested, and the binding [2] was “binds”.
